The record followed here is publication PMC4481955, “Sensitive, Fast, and Specific Immunoassays for Methyltestosterone Detection” (Sensors (Basel, Switzerland), 2015).

The structures appear in SMILES notation. Values joined by “and” are separate entries in the source; they are usually repeats but may differ in a detail not shown here. Identical values can stand only once.

This data set relates to GNPs-labelled MT mAb. Kind of data set: immunochromatographic strip assay. Type of data set: binding, mouse.

For `C[C@]12CCC(=O)C=C1CC[C@@H]1[C@@H]2CC[C@@]2(C)[C@H]1CC[C@]2(C)O` [Methyltestosterone], the visual cut-off value runs as follows: (in PBS, listed as MT) 1 ng/mL and 1.25 ng/mL; (in fish feed) 2.5 ng/g; (in pig feed) 2.5 ng/g.
